Results deposited as PubChem BioAssay AID1159579 (Peter MacCallum Cancer Centre, 2015).
Here is one part, drawn at random, of about 2,000 deposited reagents. Of all reagents, 549 (27%) got an active call. 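Some migration ratios are negative; siRNAs with too few cells are inactive whatever their migration ratio.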 The numbers tell different reagents against one gene apart. The record does not give: the time to read-out.

Screen: 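Follow-up screen seeking modulators of motility in lymphatic endothelial cells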 (follow-up of hits)
Cell system: human dermal lymphatic endothelial cells
Knock-down reagent: single siRNA against human genes, 25 nM
Measurement: 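High content images of wound closure area and cell nuclei counts, each the average of two wells, expressed against mock transfection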
Reading the numbers: migration relative to mock: higher = more migration into the scratch; mean nuclei count: higher = more cells remaining
Active means: 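a ratio of at most 0.6 or at least 1.3 marks altered migration and an active call; a mean nuclei count under 3300 forces an inactive call regardless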
Meaning of the calls: active = migration changed (impaired or accelerated); inactive = no migration change, or too few cells

target gene	reagent no.	migration relative to mock	migration and cell number class	mean nuclei count	outcome
CRTC3	1	0.66	no change in migration or cell number	5356	inactive
CRTC3	2	-0.16	migration reduced	3477	active
CRTC3	3	0.81	no change in migration or cell number	4805	inactive
CRTC3	4	0.99	no change in migration or cell number	5274	inactive
LRSAM1	1	1.07	no change in migration or cell number	6114	inactive
LRSAM1	2	0.94	no change in migration or cell number	5716	inactive
LRSAM1	3	1.31	migration increased	5724	active
LRSAM1	4	0.4	migration reduced	5337	active
KANSL1	1	0.46	migration reduced	3582	active
KANSL1	2	0.56	migration reduced	3895	active
KANSL1	3	0.73	no change in migration or cell number	3550	inactive
KANSL1	4	0.81	no change in migration or cell number	5207	inactive
MARK1	1	1	no change in migration or cell number	4962	inactive
MARK1	2	0.52	migration reduced	7204	active
MARK1	3	0.94	no change in migration or cell number	6980	inactive
MARK1	4	0.74	no change in migration or cell number	7097	inactive
STK40	1	1.07	no change in migration or cell number	6572	inactive
STK40	2	1.1	no change in migration or cell number	5694	inactive
STK40	3	0.16	migration reduced	3780	active
STK40	4	1.04	no change in migration or cell number	7338	inactive
SPDYA	1	0.94	no change in migration or cell number	5139	inactive
SPDYA	2	0.82	no change in migration or cell number	5540	inactive
SPDYA	3	0.14	migration reduced	4250	active
SPDYA	4	0.4	too few cells; migration not scored	2877	inactive
MAGEA10	1	0.76	no change in migration or cell number	4552	inactive
MAGEA10	2	0.73	no change in migration or cell number	5242	inactive
MAGEA10	3	0.48	migration reduced	3435	active
MAGEA10	4	1.06	no change in migration or cell number	5279	inactive
PPP1CA	1	0.55	migration reduced	5332	active
PPP1CA	2	0.53	migration reduced	5748	active
PPP1CA	3	-0.84	too few cells; migration not scored	3256	inactive
PPP1CA	4	0.7	no change in migration or cell number	5820	inactive
CLCN7	1	0.11	migration reduced	3886	active
CLCN7	2	0.8	no change in migration or cell number	6198	inactive
CLCN7	3	0.64	no change in migration or cell number	5266	inactive
CLCN7	4	0.58	migration reduced	4663	active
CYP4F2	1	0.77	no change in migration or cell number	6296	inactive
CYP4F2	2	0.74	no change in migration or cell number	7265	inactive
CYP4F2	3	1.02	no change in migration or cell number	8481	inactive
CYP4F2	4	0.94	no change in migration or cell number	4605	inactive
NFKBIZ	1	0.62	no change in migration or cell number	6604	inactive
NFKBIZ	2	0.54	migration reduced	5150	active
NFKBIZ	3	0.47	migration reduced	5810	active
NFKBIZ	4	0.87	no change in migration or cell number	5829	inactive
TTLL3	1	-1.21	migration reduced	3450	active
TTLL3	2	0.76	no change in migration or cell number	7274	inactive
TTLL3	3	0.94	no change in migration or cell number	4689	inactive
TTLL3	4	0.52	migration reduced	6075	active

Records above whose target name begins with T or t:
target gene	reagent no.	migration relative to mock	migration and cell number class	mean nuclei count	outcome
TTLL3	1	-1.21	migration reduced	3450	active
TTLL3	2	0.76	no change in migration or cell number	7274	inactive
TTLL3	3	0.94	no change in migration or cell number	4689	inactive
TTLL3	4	0.52	migration reduced	6075	active
